Assay results reported in PubChem BioAssay AID493014 (National Center for Advancing Translational Sciences (NCATS), 2011).
This is one part of the list. The main result of the screen is listed elsewhere. These columns were measured beside it and carry no call. Compounds called inactive in the main read-out are mostly missing here. Words in brackets tell the shape of the fitted curve; partial curves, single points and poor fits give uncertain potencies.

Experiment: qHTS Assay to Find Inhibitors of Chronic Active B-Cell Receptor Signaling
Conditions: ABC-DLBCL IkBa-CBG/CBR reporter, luminescence ratio (green luciferase fused to IkBa over red control in TMD8 lymphoma cells), 4 h
How it was run: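 TMD8 ABC-DLBCL cells carrying doxycycline-inducible green luciferase fused to IkappaBalpha plus unfused red luciferase were exposed to compounds (up to 46 uM) for 4 hrs at 37C. Activity came from the overlap-corrected green/red luminescence ratio.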

[1] = measured here: CBR red luminescence, cell number
[2] = measured here: IkBa-CBG green luminescence

Compound | AC50 [1] | AC50 [2]
O=C(Cn1ncc2c1-c1ccccc1OC2)Nc1nc2ccccc2s1 | 15.8 µM [falling, single point] | –
COCCn1c(=S)[nH]c2cc(C(=O)NCC3CCCO3)ccc2c1=O (centres undefined) | 2.06 µM [falling, full curve, poor fit] | –
COc1ccc2c(C)c(C(=O)N3CCN(Cc4ccccc4)CC3)oc2c1 | 12.6 µM [falling, single point] | –
COc1ccc(CNC(=O)C(C)OC(=O)c2cccn2C)cc1 (centres undefined) | 15.8 µM [rising, single point] | –
CCC(=O)Nc1nc2c(OC)ccc(C)c2s1 | 1.3 µM [falling, full curve, poor fit] | –
Nc1nonc1C(=O)NCCNCc1cc(Br)ccc1OCc1ccccc1F | 29.1 µM [falling, single point] | –
Fc1cccc(CSc2nc(NCCc3ccccc3)c3ccccc3n2)c1 | 35.5 µM [rising, single point] | –
COc1cc(CNC(C)c2ccccc2)cc(Cl)c1OCC(=O)Nc1ccccc1 (centres undefined) | 22.4 µM [falling, single point] | –
CCOC(=O)N1CCC(N2Cc3cccc(C(=O)Nc4cc(F)ccc4F)c3C2=O)CC1 | 4.11 µM [falling, single point] | –
COc1cccc2cc(C(=O)NC(C)C3CCCO3)c(=O)oc12 (centres undefined) | 14.6 µM [falling, single point] | –
CCOC(=O)CNC(=O)CCc1nnc2ccc(N3CCC(C)CC3)nn12 | 0.631 µM [rising, full curve, poor fit] | –
NC(=O)c1cc2c3ccccc3ccn2c1-c1ccccc1 | 11.2 µM [falling, partial curve] | –
Cc1ccc(S(N)(=O)=O)cc1NC(=O)/C=C/c1ccc2c(c1)OCO2 | 12.6 µM [falling, single point] | –
N#C/C(=C\c1ccc[nH]1)C(=O)NC1CC1 | 29.1 µM [falling, single point] | –
Cc1ccc2cccc(NC(=S)NC(=O)c3c(Br)cnn3C)c2n1 | 29.1 µM [falling, single point] | –
Cc1ccc(-c2cc(C(=O)N(C)Cc3cnn(C)c3C)c3cc(Br)ccc3n2)cc1 | 32.6 µM [falling, single point] | –
c1ccc(-c2nc(NCCCn3ccnc3)c3ccccc3n2)cc1 | 11.2 µM [falling, partial curve] | 12.6 µM [rising, partial curve, poor fit]
N#CC1=C(N)SC(N)=C(C#N)C1CCc1ccccc1 | 0.82 µM [rising, partial curve, poor fit] | –
CSc1nc2ccccc2cc1/C=C(\C#N)c1ccccc1 | 3.55 µM [rising, partial curve, poor fit] | –
CNC(=O)c1ccccc1S(=O)c1ccccc1COC(C)=O (centres undefined) | 35.5 µM [rising, single point] | –
CC(C)Nc1ncnc2ccc(Br)cc12 | 11.6 µM [falling, partial curve] | –
O=C(Nc1ncc(Cc2ccc(SC(F)F)cc2)s1)c1ccc(OC(F)F)cc1 | 1.03 µM [rising, full curve, poor fit] | 1.3 µM [falling, full curve]

Compound | AC50 [1] | AC50 [2]
CNC(=O)N(O)C1N(/N=C/c2ccc(SC)cc2)C(=S)SC1(C)C (centres undefined) | 35.5 µM [rising, partial curve, poor fit] | –
COc1ccc(CN(C)C(=O)Cn2cnc3c(NCc4ccccc4)ncnc32)cc1OC | 7.31 µM [rising, partial curve] | 11.6 µM [falling, partial curve]
Cc1ccc(S(=O)(=O)N(Cc2ccc(F)cc2)C(=O)N2CCN(C)CC2)cc1 | 0.411 µM [rising, partial curve, poor fit] | –
Cc1cc(C(=O)NCc2ccco2)c2ccccc2n1 | 14.1 µM [falling, partial curve, poor fit] | –
O=c1c2ccccc2c(C=Nc2cccc(S(=O)(=O)NCc3ccco3)c2)c(O)n1-c1ccc(Cl)cn1 | 3.66 µM [rising, full curve, poor fit] | –
Cc1cc(=O)[nH]c2n[nH]c(-c3ccccc3)c12 | 35.5 µM [falling, single point] | –
NC(=O)c1ccsc1NC(=O)COc1ccccc1 | 3.66 µM [falling, partial curve, poor fit] | –
Cc1c(C(=O)NCCN2CCOCC2)oc2ccc(Br)cc12 | 5.17 µM [rising, partial curve, poor fit] | –
Cc1ccc(CSCC(=O)Nc2ccccc2C(=O)O)cc1 | 22.4 µM [falling, single point] | –
O=C(NNC(=O)c1ccccc1O)c1ccc(Cl)cc1 | 2.82 µM [falling, partial curve, poor fit] | –
C/C(=N\NC(=O)C1COc2ccccc2O1)c1ccc(Cl)s1 (centres undefined) | 3.16 µM [rising, full curve] | –
O=C(c1cc(COc2cccc3cnccc23)on1)N1CCC(c2ccccc2Cl)C1 (centres undefined) | 17.8 µM [falling, partial curve, poor fit] | –
Cc1cccc(C(=O)NC2C(=O)NNC2c2ccc(Cl)cc2)c1 (centres undefined) | 14.1 µM [falling, partial curve, poor fit] | –
CCCN1CCC(=NNC(=O)c2ccc(Br)o2)CC1 | 35.5 µM [falling, single point] | –
CCCCCNCC(=O)Nc1cccc(C(=O)Nc2cccc(C(F)(F)F)c2)c1 | 6.31 µM [falling, full curve, poor fit] | –
Cc1ccc(NC(=O)C2CC(=O)Nc3ncnn32)cc1Cl (centres undefined) | 10 µM [falling, partial curve, poor fit] | –
C=CCNC(=S)NNC(=O)c1ccco1 | 14.1 µM [rising, partial curve, poor fit] | –
CCc1nnc(NS(=O)(=O)c2ccc(NC(=S)NC(=O)/C=C/c3cccs3)cc2)s1 | 4.47 µM [falling, partial curve, poor fit] | –
CC(=O)Nc1ccc(N2CCOCC2)c(Cl)c1 | 35.5 µM [rising, single point] | –
O=C(O)c1ccc2c(c1)C(=O)N(Cc1ccccc1)C2=O | 29.1 µM [rising, single point] | –
CCO[C@H]1OC(C(=O)NCc2nc3ccccc3[nH]2)=C[C@@H](C2CC2)[C@@H]1CCCO | 25.1 µM [rising, partial curve, poor fit] | 12.6 µM [falling, partial curve, poor fit]
COC(=O)c1cc(NS(=O)(=O)c2cccs2)cc(NS(=O)(=O)c2cccs2)c1 | 16.4 µM [falling, partial curve, poor fit] | –

Compound | AC50 [1] | AC50 [2]
NNc1nc2c(-c3ccc(F)cc3)nnn2c2ccccc12 | 0.0891 µM [falling, full curve] | –
CCN(CC)S(=O)(=O)c1cccc(NC(=O)COC(=O)C2=COCCO2)c1 | 32.6 µM [falling, single point] | –
CCN1C(=O)CC(c2ccco2)Sc2ccccc21 (centres undefined) | 9.2 µM [rising, partial curve, poor fit] | –
Cc1ccc(C(=O)O)cc1-n1c(C)cc(C=O)c1C | 5.01 µM [rising, partial curve, poor fit] | –
CCn1c(=S)[nH]c2cc(C(=O)OC)ccc2c1=O | 23.1 µM [falling, single point] | –
OCCNCCCOc1ccc(Cl)cc1Br | 35.5 µM [falling, single point] | –
CCCCc1ccc(-c2ccc(C)cc2O)nc1 | 0.794 µM [rising, full curve] | –
O=C(NN=C1CCCCCCC1)c1ccccn1 | 35.5 µM [falling, single point] | –
O=C(NCC1CC1)c1ccc(Oc2cc(Cl)cc(Cl)c2)o1 | 3.55 µM [falling, full curve, poor fit] | –
CCOCCCn1c(=NC(C)=O)c(C#N)cc2c(=O)n3cccc(C)c3nc21 | 7.08 µM [falling, full curve] | –
CCOC(=O)[C@H]1[C@H]2COc3ccc(Cl)cc3[C@@H]2N2C(=O)c3ccc(F)cc3NC(=O)[C@@]12C | 20.6 µM [falling, partial curve] | 32.6 µM [rising, partial curve, poor fit]
COc1c(Cl)cc(Cl)cc1C(=O)Nc1ccc(NC(=O)c2cccs2)cc1 | 3.16 µM [rising, partial curve, poor fit] | –
CN(C)S(=O)(=O)c1cc(NC(=O)CN2C(=O)NC3(CCCc4ccccc43)C2=O)ccc1Cl (centres undefined) | 20.6 µM [falling, single point] | –
CNc1nc(Cl)nc(NC(C)(C)C)n1 | 25.1 µM [rising, single point] | –
CN(C(=O)c1ccc(Cl)c([N+](=O)[O-])c1)C1(C)CCS(=O)(=O)C1 (centres undefined) | 14.6 µM [falling, partial curve, poor fit] | –
N=c1c2c(-c3ccccc3)c(-c3ccccc3)oc2ncn1Cc1ccco1 | 17.8 µM [falling, single point] | –
O=C(O)c1cc(C(=O)C2CCCCC2)c[nH]1 | 8.91 µM [falling, partial curve] | –
Cc1ccc(NC(=O)CCl)c(C)c1 | 5.62 µM [falling, partial curve, poor fit] | –
Cc1ccc(-c2cc(C(=O)NCCc3ccccc3)c3ccccc3n2)cc1C | 3.98 µM [rising, full curve] | –
O=[N+]([O-])c1ccc2c(c1)c(-c1ccccc1)nc1nncn12 | 20 µM [falling, single point] | –

Rewritten tab-delimited: entries from further up.
Compound	AC50 [1]	AC50 [2]
O=C(NCC1CC1)c1ccc(Oc2cc(Cl)cc(Cl)c2)o1	3.55 µM [falling, full curve, poor fit]	–
CCOCCCn1c(=NC(C)=O)c(C#N)cc2c(=O)n3cccc(C)c3nc21	7.08 µM [falling, full curve]	–
CCOC(=O)[C@H]1[C@H]2COc3ccc(Cl)cc3[C@@H]2N2C(=O)c3ccc(F)cc3NC(=O)[C@@]12C	20.6 µM [falling, partial curve]	32.6 µM [rising, partial curve, poor fit]
COc1c(Cl)cc(Cl)cc1C(=O)Nc1ccc(NC(=O)c2cccs2)cc1	3.16 µM [rising, partial curve, poor fit]	–
